Measurements published in the supplement of paper PMC10849652.
This is one part of the list.

Amino acid sequences for entries named in this document (tags omitted). A change or cut given only in a name is not applied to a line headed by its entry.
UniProt Q00597: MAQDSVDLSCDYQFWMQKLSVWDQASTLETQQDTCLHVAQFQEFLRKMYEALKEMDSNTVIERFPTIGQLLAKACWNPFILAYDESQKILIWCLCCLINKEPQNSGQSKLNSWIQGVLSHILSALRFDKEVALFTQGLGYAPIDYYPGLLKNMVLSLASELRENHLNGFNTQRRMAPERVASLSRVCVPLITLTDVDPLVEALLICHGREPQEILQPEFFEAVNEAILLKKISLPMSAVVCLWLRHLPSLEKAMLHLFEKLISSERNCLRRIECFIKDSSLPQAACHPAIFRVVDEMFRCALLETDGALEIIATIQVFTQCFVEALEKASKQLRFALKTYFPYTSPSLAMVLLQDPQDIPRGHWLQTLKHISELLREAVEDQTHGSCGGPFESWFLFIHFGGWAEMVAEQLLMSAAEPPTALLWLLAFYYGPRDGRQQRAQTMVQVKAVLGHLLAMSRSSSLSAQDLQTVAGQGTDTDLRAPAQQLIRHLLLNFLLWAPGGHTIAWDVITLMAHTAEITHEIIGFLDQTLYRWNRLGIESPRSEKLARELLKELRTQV
UniProt P01100, whole entry, looked up: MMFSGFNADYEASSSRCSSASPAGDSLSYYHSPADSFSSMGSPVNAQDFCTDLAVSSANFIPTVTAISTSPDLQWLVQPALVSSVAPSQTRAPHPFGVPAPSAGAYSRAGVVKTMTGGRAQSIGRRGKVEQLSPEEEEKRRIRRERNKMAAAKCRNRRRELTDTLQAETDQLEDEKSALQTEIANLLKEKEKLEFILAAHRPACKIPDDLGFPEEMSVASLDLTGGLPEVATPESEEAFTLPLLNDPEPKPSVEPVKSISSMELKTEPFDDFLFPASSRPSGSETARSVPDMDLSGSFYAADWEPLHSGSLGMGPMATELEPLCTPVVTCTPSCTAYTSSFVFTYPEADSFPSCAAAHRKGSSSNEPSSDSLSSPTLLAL
UniProt Q96IV6: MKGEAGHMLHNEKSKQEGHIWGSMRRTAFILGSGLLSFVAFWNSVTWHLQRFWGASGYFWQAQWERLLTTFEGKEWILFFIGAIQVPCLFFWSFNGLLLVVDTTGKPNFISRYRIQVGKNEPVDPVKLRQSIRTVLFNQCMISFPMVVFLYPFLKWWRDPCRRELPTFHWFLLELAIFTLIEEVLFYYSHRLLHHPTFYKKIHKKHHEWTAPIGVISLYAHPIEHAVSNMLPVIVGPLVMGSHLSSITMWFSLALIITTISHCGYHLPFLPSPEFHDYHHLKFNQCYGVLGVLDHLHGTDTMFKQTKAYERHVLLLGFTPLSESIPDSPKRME
UniProt Q9H469: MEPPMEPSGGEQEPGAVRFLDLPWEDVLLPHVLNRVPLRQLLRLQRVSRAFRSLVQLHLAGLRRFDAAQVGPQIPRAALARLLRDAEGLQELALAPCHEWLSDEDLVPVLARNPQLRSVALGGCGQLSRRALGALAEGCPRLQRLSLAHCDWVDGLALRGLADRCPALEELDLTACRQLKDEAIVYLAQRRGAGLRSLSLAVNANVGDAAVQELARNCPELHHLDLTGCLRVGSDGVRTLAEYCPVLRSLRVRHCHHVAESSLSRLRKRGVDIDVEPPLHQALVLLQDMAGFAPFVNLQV
UniProt Q9HB96: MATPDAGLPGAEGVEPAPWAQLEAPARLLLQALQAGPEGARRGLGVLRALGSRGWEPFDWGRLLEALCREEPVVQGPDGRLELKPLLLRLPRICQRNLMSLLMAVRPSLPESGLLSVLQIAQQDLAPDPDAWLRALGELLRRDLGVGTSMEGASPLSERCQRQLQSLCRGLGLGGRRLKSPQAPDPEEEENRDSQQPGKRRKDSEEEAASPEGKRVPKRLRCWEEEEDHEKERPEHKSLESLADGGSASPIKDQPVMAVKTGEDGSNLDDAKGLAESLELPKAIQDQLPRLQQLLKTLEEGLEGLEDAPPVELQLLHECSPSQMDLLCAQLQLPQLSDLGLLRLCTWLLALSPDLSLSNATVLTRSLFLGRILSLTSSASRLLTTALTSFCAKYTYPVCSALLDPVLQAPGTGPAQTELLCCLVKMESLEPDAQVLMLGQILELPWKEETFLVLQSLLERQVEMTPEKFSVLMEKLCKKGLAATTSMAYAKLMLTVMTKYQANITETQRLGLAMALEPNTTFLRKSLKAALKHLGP
UniProt P23142: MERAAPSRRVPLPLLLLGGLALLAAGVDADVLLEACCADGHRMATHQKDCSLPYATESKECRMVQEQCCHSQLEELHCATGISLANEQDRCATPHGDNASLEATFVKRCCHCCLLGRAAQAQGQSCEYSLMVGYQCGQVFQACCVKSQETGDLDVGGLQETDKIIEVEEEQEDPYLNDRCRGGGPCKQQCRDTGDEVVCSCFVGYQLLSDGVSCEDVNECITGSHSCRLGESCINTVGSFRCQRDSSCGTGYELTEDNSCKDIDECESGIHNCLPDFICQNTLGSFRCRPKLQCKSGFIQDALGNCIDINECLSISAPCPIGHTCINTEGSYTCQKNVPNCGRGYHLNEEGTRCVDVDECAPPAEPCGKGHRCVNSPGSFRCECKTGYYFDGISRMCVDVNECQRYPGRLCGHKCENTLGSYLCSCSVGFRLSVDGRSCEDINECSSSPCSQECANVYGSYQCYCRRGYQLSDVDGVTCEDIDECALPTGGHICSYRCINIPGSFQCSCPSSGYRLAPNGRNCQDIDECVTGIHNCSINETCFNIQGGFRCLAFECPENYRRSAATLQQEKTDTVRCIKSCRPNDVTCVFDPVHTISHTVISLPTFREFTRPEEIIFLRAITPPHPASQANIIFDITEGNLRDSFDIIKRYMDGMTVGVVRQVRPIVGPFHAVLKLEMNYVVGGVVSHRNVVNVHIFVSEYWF
UniProt Q92913: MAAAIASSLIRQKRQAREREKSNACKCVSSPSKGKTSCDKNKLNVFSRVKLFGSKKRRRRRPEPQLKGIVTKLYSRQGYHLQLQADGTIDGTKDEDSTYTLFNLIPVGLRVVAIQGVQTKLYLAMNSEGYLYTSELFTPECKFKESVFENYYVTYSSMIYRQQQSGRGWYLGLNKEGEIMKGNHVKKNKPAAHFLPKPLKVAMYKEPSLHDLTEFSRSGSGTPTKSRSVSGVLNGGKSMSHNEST
UniProt Q9UKB1: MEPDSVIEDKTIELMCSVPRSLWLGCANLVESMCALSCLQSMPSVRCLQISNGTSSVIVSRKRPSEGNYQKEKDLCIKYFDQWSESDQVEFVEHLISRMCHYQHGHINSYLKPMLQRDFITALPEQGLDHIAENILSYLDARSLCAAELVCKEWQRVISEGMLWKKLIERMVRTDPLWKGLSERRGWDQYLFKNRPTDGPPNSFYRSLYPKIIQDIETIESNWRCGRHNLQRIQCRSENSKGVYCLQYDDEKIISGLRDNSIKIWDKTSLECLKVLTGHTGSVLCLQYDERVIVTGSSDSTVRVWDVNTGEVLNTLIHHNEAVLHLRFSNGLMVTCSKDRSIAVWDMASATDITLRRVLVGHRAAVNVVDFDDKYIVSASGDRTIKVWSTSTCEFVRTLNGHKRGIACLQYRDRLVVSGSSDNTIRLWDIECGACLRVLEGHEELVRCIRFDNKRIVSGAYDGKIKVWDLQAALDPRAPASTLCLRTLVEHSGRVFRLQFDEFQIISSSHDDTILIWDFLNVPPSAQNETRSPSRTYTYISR
UniProt Q9P0K8: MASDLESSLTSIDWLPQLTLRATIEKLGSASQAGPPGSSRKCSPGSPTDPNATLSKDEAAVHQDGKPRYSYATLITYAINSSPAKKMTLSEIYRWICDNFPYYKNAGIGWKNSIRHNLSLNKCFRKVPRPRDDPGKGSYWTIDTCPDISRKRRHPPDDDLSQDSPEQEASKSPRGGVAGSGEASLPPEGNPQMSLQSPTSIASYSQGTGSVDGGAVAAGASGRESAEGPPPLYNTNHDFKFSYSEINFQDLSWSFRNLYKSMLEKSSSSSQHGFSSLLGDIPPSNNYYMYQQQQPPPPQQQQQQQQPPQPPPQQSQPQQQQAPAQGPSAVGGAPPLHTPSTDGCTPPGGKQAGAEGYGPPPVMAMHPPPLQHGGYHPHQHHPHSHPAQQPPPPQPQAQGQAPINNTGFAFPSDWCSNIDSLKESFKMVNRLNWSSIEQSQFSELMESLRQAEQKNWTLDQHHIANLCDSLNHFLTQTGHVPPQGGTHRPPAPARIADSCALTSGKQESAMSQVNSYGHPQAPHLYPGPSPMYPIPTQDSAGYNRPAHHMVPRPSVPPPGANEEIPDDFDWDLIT
UniProt Q96PY5, whole entry, looked up: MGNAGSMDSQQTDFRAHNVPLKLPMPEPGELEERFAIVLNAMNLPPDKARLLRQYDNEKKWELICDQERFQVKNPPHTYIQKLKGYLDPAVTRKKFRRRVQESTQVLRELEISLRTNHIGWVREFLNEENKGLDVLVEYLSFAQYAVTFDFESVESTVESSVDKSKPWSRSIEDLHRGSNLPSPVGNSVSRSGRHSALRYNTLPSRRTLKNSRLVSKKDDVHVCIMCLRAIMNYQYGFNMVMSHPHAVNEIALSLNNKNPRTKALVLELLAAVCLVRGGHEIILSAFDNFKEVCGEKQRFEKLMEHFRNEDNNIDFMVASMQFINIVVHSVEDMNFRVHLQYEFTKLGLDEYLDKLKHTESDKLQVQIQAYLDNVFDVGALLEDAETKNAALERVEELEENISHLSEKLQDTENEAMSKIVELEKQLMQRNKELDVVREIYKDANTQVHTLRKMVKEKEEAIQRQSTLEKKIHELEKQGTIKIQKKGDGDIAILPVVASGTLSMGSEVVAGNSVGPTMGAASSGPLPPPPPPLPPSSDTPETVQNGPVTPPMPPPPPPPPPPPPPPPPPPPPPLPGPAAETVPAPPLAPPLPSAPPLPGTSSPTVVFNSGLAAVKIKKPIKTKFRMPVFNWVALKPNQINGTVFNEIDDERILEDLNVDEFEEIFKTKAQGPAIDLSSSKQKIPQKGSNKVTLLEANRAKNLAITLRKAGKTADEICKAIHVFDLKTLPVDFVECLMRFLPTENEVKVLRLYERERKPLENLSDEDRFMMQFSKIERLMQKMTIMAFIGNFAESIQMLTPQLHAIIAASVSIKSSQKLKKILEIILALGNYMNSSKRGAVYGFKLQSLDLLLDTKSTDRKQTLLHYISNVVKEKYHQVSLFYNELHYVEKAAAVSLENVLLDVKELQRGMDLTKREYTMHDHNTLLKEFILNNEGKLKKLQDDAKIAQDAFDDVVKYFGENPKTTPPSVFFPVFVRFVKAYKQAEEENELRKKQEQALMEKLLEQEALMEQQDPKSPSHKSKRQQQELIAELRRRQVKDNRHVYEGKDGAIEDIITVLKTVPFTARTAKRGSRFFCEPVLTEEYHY
UniProt Q9Y2H6: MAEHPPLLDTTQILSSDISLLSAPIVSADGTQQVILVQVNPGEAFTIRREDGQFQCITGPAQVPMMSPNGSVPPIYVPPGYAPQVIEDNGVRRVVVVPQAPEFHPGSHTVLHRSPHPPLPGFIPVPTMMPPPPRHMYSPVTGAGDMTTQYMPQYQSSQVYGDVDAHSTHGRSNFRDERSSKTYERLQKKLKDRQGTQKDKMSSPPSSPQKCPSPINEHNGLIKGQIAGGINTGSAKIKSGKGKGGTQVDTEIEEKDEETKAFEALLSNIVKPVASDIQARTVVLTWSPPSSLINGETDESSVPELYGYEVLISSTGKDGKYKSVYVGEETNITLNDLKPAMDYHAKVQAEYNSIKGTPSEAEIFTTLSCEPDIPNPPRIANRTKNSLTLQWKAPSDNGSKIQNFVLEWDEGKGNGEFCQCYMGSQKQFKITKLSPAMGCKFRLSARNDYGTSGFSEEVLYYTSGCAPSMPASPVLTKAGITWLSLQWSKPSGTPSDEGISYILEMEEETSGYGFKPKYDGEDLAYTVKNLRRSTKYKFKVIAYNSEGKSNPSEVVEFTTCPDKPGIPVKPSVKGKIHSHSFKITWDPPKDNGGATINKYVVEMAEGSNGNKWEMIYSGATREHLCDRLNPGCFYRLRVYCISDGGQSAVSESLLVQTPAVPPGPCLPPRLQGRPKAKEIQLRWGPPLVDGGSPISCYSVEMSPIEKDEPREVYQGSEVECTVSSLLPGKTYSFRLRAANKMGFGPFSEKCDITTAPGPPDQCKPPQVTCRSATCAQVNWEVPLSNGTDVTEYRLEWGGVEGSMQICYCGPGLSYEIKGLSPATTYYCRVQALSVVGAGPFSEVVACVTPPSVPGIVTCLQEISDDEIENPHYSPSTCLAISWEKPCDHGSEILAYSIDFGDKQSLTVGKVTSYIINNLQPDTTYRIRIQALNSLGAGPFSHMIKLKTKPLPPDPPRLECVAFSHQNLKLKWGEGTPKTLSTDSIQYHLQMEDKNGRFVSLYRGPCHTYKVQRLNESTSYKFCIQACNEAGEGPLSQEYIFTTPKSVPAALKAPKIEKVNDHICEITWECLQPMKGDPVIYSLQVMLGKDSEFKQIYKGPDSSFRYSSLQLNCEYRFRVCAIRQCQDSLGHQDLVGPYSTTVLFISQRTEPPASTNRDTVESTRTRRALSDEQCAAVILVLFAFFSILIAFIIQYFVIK

What was measured:
Test in all cases: log2 fold change, soluble protein after heating vs DMSO (PISA); higher = thermal stabilisation; K562 lysate, 10 uM; active = over 0.2 and 3.5 SD of the protein, either way, in both replicates (recomputed)
vorinostat = compound: O=C(CCCCCCC(=O)Nc1ccccc1)NO [vorinostat]
Method in brief: (§1)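 Quantification was by TMTpro 16plex LC-MS/MS with equalised channel sums, applied to the supernatant after 21,000xg for 90 min. Samples were crude K562 extract at 1 mg/mL protein in PBS pH 7.4 with 1 mM MgCl2, treated with 10 μM compound for 30 min, heated for 3 min across 48°C-58°C, pooled and brought to 0.5% NP-40 at 4°C. Values are log-two fold changes in thermal stability relative to solvent controls, from duplicates.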

silmitasertib = compound: O=C(O)c1ccc2c(c1)nc(Nc1cccc(Cl)c1)c1ccncc12 [silmitasertib]
Method in brief: as §1

[1] = compound: O=C1NC(=O)C(c2cnc3ccccn23)=C1c1cn2c3c(cc(F)cc13)CN(C(=O)N1CCCCC1)CC2
Method in brief: as §1

entospletinib = compound: c1cn2cc(-c3ccc4cn[nH]c4c3)nc(Nc3ccc(N4CCOCC4)cc3)c2n1 [entospletinib]
Method in brief: as §1

[2] = compound: NCC(=O)Nc1ccc(-n2nc(C(F)(F)F)cc2-c2ccc3c(ccc4ccccc43)c2)cc1
Method in brief: as §1

Q: Which results are given for FANCC (UniProt Q00597)?
A: log2 fold change (vorinostat): inactive: 0.098; log2 fold change (silmitasertib): inactive: 0.206; log2 fold change [1]: inactive: -0.14

Q: Which results are given for FARP2 (UniProt O94887)?
A: log2 fold change (vorinostat): inactive: 0.029; log2 fold change (silmitasertib): inactive: -0.017; log2 fold change [1]: inactive: 0.038

Q: Which log2 fold change (entospletinib) does the source give for FOS (UniProt P01100) here?
A: The log2 fold change was inactive: 0.003.

Q: For FAXDC2 (UniProt Q96IV6), which log2 fold change (vorinostat) is on record?
A: Its log2 fold change is inactive: 0.058.

Q: And the log2 fold change (silmitasertib)?
A: The log2 fold change was inactive: -0.15.

Q: And the log2 fold change [1]?
A: Its log2 fold change is inactive: 0.081.

Q: And the log2 fold change (entospletinib)?
A: Its log2 fold change is inactive: 0.001.

Q: Which log2 fold change [2] does the source give for FBXL15 (UniProt Q9H469) here?
A: The log2 fold change was inactive: -0.075.

Q: What about the log2 fold change [1] of the same target?
A: The log2 fold change was inactive: 0.145.

Q: What about the log2 fold change (entospletinib) of the same target?
A: Its log2 fold change is inactive: -0.032.

Q: With FANCE (UniProt Q9HB96) as the target, how does the log2 fold change [1] read?
A: Its log2 fold change is inactive: -0.116.

Q: For FBLN1 (UniProt P23142), which log2 fold change [2] is on record?
A: The log2 fold change was inactive: -0.041.

Q: What about the log2 fold change [1] of the same target?
A: The log2 fold change was inactive: -0.052.

Q: Which results are given for FEN1 (UniProt I3L3E9)?
A: log2 fold change [2]: inactive: -0.055; log2 fold change (entospletinib): inactive: -0.089

Q: For FGF13 isoform 3 (UniProt Q92913), which log2 fold change (vorinostat) is on record?
A: Its log2 fold change is inactive: 0.106.

Q: And the log2 fold change (silmitasertib)?
A: Its log2 fold change is inactive: -0.111.

Q: And the log2 fold change [1]?
A: The log2 fold change was inactive: -0.009.

Q: What about the log2 fold change (entospletinib) of the same target?
A: Its log2 fold change is inactive: 0.022.

Q: With FCF1 (UniProt Q9Y324) as the target, how does the log2 fold change [1] read?
A: The log2 fold change was inactive: 0.089.

Q: FBXO11 isoform 5 (UniProt Q86XK2) was tested. Which log2 fold change (vorinostat) did it give?
A: The log2 fold change was inactive: -0.383.

Q: And the log2 fold change (silmitasertib)?
A: The log2 fold change was inactive: -0.277.

Q: And the log2 fold change [1]?
A: Its log2 fold change is inactive: 0.054.

Q: With FBXW11 (UniProt Q9UKB1) as the target, how does the log2 fold change (vorinostat) read?
A: Its log2 fold change is inactive: -0.217.

Q: And the log2 fold change (silmitasertib)?
A: The log2 fold change was inactive: 0.088.

Q: And the log2 fold change [1]?
A: The log2 fold change was inactive: 0.015.

Q: And the log2 fold change (entospletinib)?
A: Its log2 fold change is inactive: -0.074.

Q: How did the log2 fold change [1] turn out when FOSL1 (UniProt P15407) was run?
A: Its log2 fold change is inactive: 0.038.

Q: For FILIP1L (UniProt Q4L180), which log2 fold change (entospletinib) is on record?
A: The log2 fold change was inactive: -0.003.

Q: What does the source list for FLII isoform 2 (UniProt Q13045)?
A: log2 fold change [2]: inactive: 0.141; log2 fold change (entospletinib): inactive: -0.014

Q: FOXJ2 (UniProt Q9P0K8) was tested. Which log2 fold change (vorinostat) did it give?
A: Its log2 fold change is inactive: -0.208.

Q: What about the log2 fold change (silmitasertib) of the same target?
A: Its log2 fold change is inactive: -0.058.

Q: What about the log2 fold change (entospletinib) of the same target?
A: The log2 fold change was inactive: 0.033.

Q: For FMNL2 isoform 3 (UniProt Q96PY5), which log2 fold change (vorinostat) is on record?
A: The log2 fold change was active: -0.587.

Q: What about the log2 fold change (silmitasertib) of the same target?
A: Its log2 fold change is inactive: -0.027.

Q: What about the log2 fold change [1] of the same target?
A: The log2 fold change was inactive: 0.045.

Q: FBH1 isoform 2 (UniProt Q8NFZ0) was tested. Which log2 fold change [1] did it give?
A: The log2 fold change was inactive: 0.137.

Q: How did the log2 fold change (vorinostat) turn out when FNDC3A (UniProt Q9Y2H6) was run?
A: Its log2 fold change is inactive: -0.018.

Q: What about the log2 fold change (silmitasertib) of the same target?
A: Its log2 fold change is inactive: -0.119.

Q: What about the log2 fold change [1] of the same target?
A: Its log2 fold change is inactive: -0.146.

Q: FGFR1OP2 isoform 2 (UniProt Q9NVK5) was tested. Which log2 fold change [1] did it give?
A: The log2 fold change was inactive: 0.048.
